# Test results published in the supplement of paper PMC8728848.
# The other results are listed elsewhere or left out.
# How the values were obtained:
# Experiment in all cases: glycan array binding signal (z-score within array); higher = stronger binding
# Conditions in all cases: glycan notation: IUPAC condensed, linker removed
# Fuc(a1-3)GlcNAc = biological target: Fuc(a1-3)GlcNAc
# Summary of the method: (§1)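 Glycan array binding is given as a within-array Z-score, which can be read as non-binding when negative. The arrays, 3228 of them, came from the Consortium for Functional Glycomics database and were retained only where the protein sequence was available. Z-scores were averaged across arrays of the same protein sequence at different concentrations or buffers and across linkers.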
# [1] = biological target: Fuc(a1-3)[Gal(b1-4)]Glc6S
# Summary of the method: as §1
# [2] = biological target: Fuc(a1-3)[Gal(b1-4)]GlcNAc
# Summary of the method: as §1
# [3] = biological target: Fuc(a1-3)[Gal(b1-4)]GlcNAc(b1-2)Man
# Summary of the method: as §1
# [4] = biological target: Fuc(a1-3)[Gal(b1-4)]GlcNAc(b1-2)Man(a1-3)[Fuc(a1-3)[Gal(b1-4)]GlcNAc(b1-2)Man(a1-6)]Man(b1-4)GlcNAc(b1-4)GlcNAc
# Summary of the method: as §1
# [5] = biological target: Fuc(a1-3)[Gal(b1-4)]GlcNAc(b1-2)Man(a1-3)[Fuc(a1-3)[Gal(b1-4)]GlcNAc(b1-2)Man(a1-6)]Man(b1-4)GlcNAc(b1-4)[Fuc(a1-6)]GlcNAc
# Summary of the method: as §1
# [6] = biological target: Fuc(a1-3)[Gal(b1-4)]GlcNAc(b1-3)Gal(b1-3)[Fuc(a1-4)]GlcNAc
# Summary of the method: as §1
# [7] = biological target: Fuc(a1-3)[Gal(b1-4)]GlcNAc(b1-3)Gal(b1-4)[Fuc(a1-3)]GlcNAc
# Summary of the method: as §1
# [8] = biological target: Fuc(a1-3)[Gal(b1-4)]GlcNAc(b1-3)Gal(b1-4)[Fuc(a1-3)]GlcNAc(b1-3)Gal(b1-4)[Fuc(a1-3)]GlcNAc
# Summary of the method: as §1
# [9] = biological target: Fuc(a1-3)[Gal(b1-4)]GlcNAc(b1-3)GalNAc
# Summary of the method: as §1
# [10] = biological target: Fuc(a1-3)[Gal(b1-4)]GlcNAc(b1-6)GalNAc
# Summary of the method: as §1
# [11] = biological target: Fuc(a1-3)[Gal(b1-4)]GlcNAc(b1-6)[Gal(b1-3)GlcNAc(b1-3)]Gal(b1-4)Glc
# Summary of the method: as §1
# [12] = biological target: Fuc(a1-3)[Gal(b1-4)]GlcNAc6S
# Summary of the method: as §1
# [13] = biological target: Fuc(a1-3)[Gal3S(b1-4)]Glc
# Summary of the method: as §1
# [14] = biological target: Fuc(a1-3)[Gal3S(b1-4)]GlcNAc
# Summary of the method: as §1
# [15] = biological target: Fuc(a1-3)[Gal3S(b1-4)]GlcNAc6S
# Summary of the method: as §1
# [16] = biological target: Fuc(a1-3)[GalNAc(b1-4)]GlcNAc
# Summary of the method: as §1
# [17] = biological target: Fuc(a1-3)[GalNAc(b1-4)]GlcNAc6S
# Summary of the method: as §1
# Fuc(a1-4)GlcNAc = biological target: Fuc(a1-4)GlcNAc
# Summary of the method: as §1
# Fuc(b1-3)GlcNAc = biological target: Fuc(b1-3)GlcNAc
# Summary of the method: as §1
# Gal(a1-2)Gal = biological target: Gal(a1-2)Gal
# Summary of the method: as §1
# Gal(a1-3)Gal = biological target: Gal(a1-3)Gal
# Summary of the method: as §1
# Gal(a1-3)Gal(b1-3)GlcNAc = biological target: Gal(a1-3)Gal(b1-3)GlcNAc
# Summary of the method: as §1
# [18] = biological target: Gal(a1-3)Gal(b1-3)GlcNAc(b1-2)Man
# Summary of the method: as §1
# [19] = biological target: Gal(a1-3)Gal(b1-3)GlcNAc(b1-2)Man(a1-3)[Gal(a1-3)Gal(b1-3)GlcNAc(b1-2)Man(a1-6)]Man(b1-4)GlcNAc(b1-4)GlcNAc
# Summary of the method: as §1
# [20] = biological target: Gal(a1-3)Gal(b1-3)GlcNAc(b1-3)GalNAc
# Summary of the method: as §1
# [21] = biological target: Gal(a1-3)Gal(b1-3)GlcNAc(b1-6)GalNAc
# Summary of the method: as §1
# [22] = biological target: Gal(a1-3)Gal(b1-3)[Fuc(a1-4)]GlcNAc(b1-2)Man(a1-3)[Gal(a1-3)Gal(b1-3)[Fuc(a1-4)]GlcNAc(b1-2)Man(a1-6)]Man(b1-4)GlcNAc(b1-4)GlcNAc
# Summary of the method: as §1
# Gal(a1-3)Gal(b1-4)Glc = biological target: Gal(a1-3)Gal(b1-4)Glc
# Summary of the method: as §1
# Gal(a1-3)Gal(b1-4)GlcNAc = biological target: Gal(a1-3)Gal(b1-4)GlcNAc
# Summary of the method: as §1
binder,measurement,setting,value
Vd7LysM (Verticillium dahliae) (protein) RRGPEPKYPPAAGTSSYCSYWVDYEGDKSCSRVLEDNVVVLKDFARWNPTVGADCSGIKAGNSYCVEAFGEPEPIEVTTTTRAATTTTQPTATTTTFANGIATPQPTQSGMVTNCNKFHWIAEGVSCSQVISFQKITLADFVKWNPSVKSDCSGMWAGVNVCVGVVGSSTDTAKPTTTAPSNGVVTPQPTQPSMVTNCNKFHWIAKGVTCQQVISYQKISLADFVKWNPSVLSDCSGMWAEVQVCVGVIGSTPTTLATTTTTAGNGVSTPLPTQPGMVTNCAKFHWVAKGVTCNQIYSFQKITLEQFVSYNPTVKSDCSGMQAEVQVCVGLIAGTTPTTTRPPTTTAPGNGVSTPQPTQPGMVTNCAKFHWVAKGVTCNQIYSFQKITLEQFVSFNPTVKSDCTGMQAEVNVCVGLIGGNPTPTQTGNGIATPTPIQPGMVSNCKKFHWIAQGVTCQQVISFQKITLADFVKWNTGVGSDCRTMWAETNVCVGV,glycan array binding signal (z-score),Fuc(a1-3)GlcNAc,0.586
same,glycan array binding signal (z-score),[1],0.721
same,glycan array binding signal (z-score),[2],-0.68
same,glycan array binding signal (z-score),[3],-0.427
same,glycan array binding signal (z-score),[4],-0.585
same,glycan array binding signal (z-score),[5],0.984
same,glycan array binding signal (z-score),[6],1.12
same,glycan array binding signal (z-score),[7],0.465
same,glycan array binding signal (z-score),[8],1.1
same,glycan array binding signal (z-score),[9],0.444
same,glycan array binding signal (z-score),[10],-1.46
same,glycan array binding signal (z-score),[11],-0.045
same,glycan array binding signal (z-score),[12],0.976
same,glycan array binding signal (z-score),[13],-0.272
same,glycan array binding signal (z-score),[14],0.736
same,glycan array binding signal (z-score),[15],1.04
same,glycan array binding signal (z-score),[16],0.317
same,glycan array binding signal (z-score),[17],-0.031
same,glycan array binding signal (z-score),Fuc(a1-4)GlcNAc,0.351
same,glycan array binding signal (z-score),Fuc(b1-3)GlcNAc,-0.78
same,glycan array binding signal (z-score),Gal(a1-2)Gal,-1.84
same,glycan array binding signal (z-score),Gal(a1-3)Gal,-1.18
same,glycan array binding signal (z-score),Gal(a1-3)Gal(b1-3)GlcNAc,-0.163
same,glycan array binding signal (z-score),[18],0.613
same,glycan array binding signal (z-score),[19],-0.666
same,glycan array binding signal (z-score),[20],0.041
same,glycan array binding signal (z-score),[21],0.852
same,glycan array binding signal (z-score),[22],-0.823
same,glycan array binding signal (z-score),Gal(a1-3)Gal(b1-4)Glc,0.539
same,glycan array binding signal (z-score),Gal(a1-3)Gal(b1-4)GlcNAc,-0.11

# Reprinted at random: two entries already listed.
binder,measurement,setting,value
Vd7LysM (Verticillium dahliae) (protein) RRGPEPKYPPAAGTSSYCSYWVDYEGDKSCSRVLEDNVVVLKDFARWNPTVGADCSGIKAGNSYCVEAFGEPEPIEVTTTTRAATTTTQPTATTTTFANGIATPQPTQSGMVTNCNKFHWIAEGVSCSQVISFQKITLADFVKWNPSVKSDCSGMWAGVNVCVGVVGSSTDTAKPTTTAPSNGVVTPQPTQPSMVTNCNKFHWIAKGVTCQQVISYQKISLADFVKWNPSVLSDCSGMWAEVQVCVGVIGSTPTTLATTTTTAGNGVSTPLPTQPGMVTNCAKFHWVAKGVTCNQIYSFQKITLEQFVSYNPTVKSDCSGMQAEVQVCVGLIAGTTPTTTRPPTTTAPGNGVSTPQPTQPGMVTNCAKFHWVAKGVTCNQIYSFQKITLEQFVSFNPTVKSDCTGMQAEVNVCVGLIGGNPTPTQTGNGIATPTPIQPGMVSNCKKFHWIAQGVTCQQVISFQKITLADFVKWNTGVGSDCRTMWAETNVCVGV,glycan array binding signal (z-score),[7],0.465
same,glycan array binding signal (z-score),Fuc(b1-3)GlcNAc,-0.78
